The record followed here is patent US20190309074A1, “DEGLYCOSYLATED ANTIBODY SPECIFICALLY BINDING TO CLEC14A AND USES THEREOF” (WOORI TECHNOLOGIES CORPORATION, priority 2016, published 2019).

For one assay, the target named is T1, hclec14a-CTLD-Fc (human, UniProt Q86T13 31-172, limits assumed).
T1 construct: domain: C-type lectin-like domain (CTLD); also called human clec14a-CTLD-Fc; human CTLD; not shown: Fc
T1 sequence (looked up): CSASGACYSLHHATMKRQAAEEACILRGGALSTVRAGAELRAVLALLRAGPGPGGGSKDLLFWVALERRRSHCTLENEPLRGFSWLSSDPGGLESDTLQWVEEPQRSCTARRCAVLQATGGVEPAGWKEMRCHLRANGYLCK
Put plainly: ELISA on hclec14a-CTLD-Fc. On the technique in general: ELISA stands for enzyme-linked immunosorbent assay.

The target in a further assay is T2, mclec14a-CTLD-Fc (mouse, UniProt Q8VCP9 31-172, limits assumed).
T2 construct: domain: C-type lectin-like domain (CTLD); also called mouse clec14a-CTLD-Fc; mouse CTLD; not shown: Fc
T2 sequence (looked up): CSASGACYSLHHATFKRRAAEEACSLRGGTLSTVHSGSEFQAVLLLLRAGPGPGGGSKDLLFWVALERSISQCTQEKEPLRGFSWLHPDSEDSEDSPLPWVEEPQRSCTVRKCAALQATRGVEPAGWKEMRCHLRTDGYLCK
The experiment in a line: ELISA on mclec14a-CTLD-Fc.

These are yes or no findings as the source states them, for the method shown. Some results given as binding are weak or reduced against the parent protein; the word gives no strength.

B1: clone 1 IgG (parent CDRs grafted to the omalizumab (Xolair) framework) (antibody, V domains shown)
VH: EVQLVESGGGLVQPGGSLRLSCAVSGFTFSGYDMSWIRQAPGKGLEWVAGIYPDGGNTYYADSVKGRFTISRDDSKNTFYLQMNSLRAEDTAVYYCARGATWWVLGPFDYWGQGTLVTVSS
VL: DIQLTQSPSSLSASVGDRVTITCTGSSSNIGNNSVTWYQQKPGKAPKLLIYADSHRPSGVPSRFSGSGSGTDFTLTISSLQPEDFATYYCGAWDDSLSGYVFGQGTKVEIKR
Regarding B1, the binding result with hclec14a-CTLD-Fc and in the assay with mclec14a-CTLD-Fc was “binds” each time.
